The supplement of paper PMC7666118
The other results are listed elsewhere or left out.

Amino acid sequences for entries named in this document (tags omitted). A change or cut given only in a name is not applied to a line headed by its entry.
UniProt P78344: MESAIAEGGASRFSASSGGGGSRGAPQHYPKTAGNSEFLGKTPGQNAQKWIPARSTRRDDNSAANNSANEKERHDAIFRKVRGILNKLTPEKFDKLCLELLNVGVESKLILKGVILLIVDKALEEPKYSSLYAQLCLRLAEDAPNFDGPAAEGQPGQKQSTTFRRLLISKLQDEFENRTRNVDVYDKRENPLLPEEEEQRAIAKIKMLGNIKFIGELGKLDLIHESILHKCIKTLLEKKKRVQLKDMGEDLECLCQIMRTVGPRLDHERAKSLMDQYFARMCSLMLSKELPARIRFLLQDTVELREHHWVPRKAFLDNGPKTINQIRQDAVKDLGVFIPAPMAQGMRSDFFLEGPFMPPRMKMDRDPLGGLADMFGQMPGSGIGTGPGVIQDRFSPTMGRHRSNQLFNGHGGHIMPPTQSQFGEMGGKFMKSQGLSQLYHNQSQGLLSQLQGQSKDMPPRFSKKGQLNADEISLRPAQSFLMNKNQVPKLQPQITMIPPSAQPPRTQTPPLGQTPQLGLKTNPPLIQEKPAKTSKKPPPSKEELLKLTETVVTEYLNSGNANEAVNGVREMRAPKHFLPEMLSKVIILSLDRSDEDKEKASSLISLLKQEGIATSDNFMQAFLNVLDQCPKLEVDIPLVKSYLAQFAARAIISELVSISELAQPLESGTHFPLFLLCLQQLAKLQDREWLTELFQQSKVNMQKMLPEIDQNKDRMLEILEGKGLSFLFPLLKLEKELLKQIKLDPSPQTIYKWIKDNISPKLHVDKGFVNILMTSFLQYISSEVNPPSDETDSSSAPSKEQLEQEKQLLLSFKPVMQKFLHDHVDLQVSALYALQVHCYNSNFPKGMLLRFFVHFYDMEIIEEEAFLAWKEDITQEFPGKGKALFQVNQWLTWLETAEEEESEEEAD
UniProt Q13541: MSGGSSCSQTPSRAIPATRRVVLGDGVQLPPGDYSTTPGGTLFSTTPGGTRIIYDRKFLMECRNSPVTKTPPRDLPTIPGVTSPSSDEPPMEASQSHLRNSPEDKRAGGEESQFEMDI
UniProt Q9H777: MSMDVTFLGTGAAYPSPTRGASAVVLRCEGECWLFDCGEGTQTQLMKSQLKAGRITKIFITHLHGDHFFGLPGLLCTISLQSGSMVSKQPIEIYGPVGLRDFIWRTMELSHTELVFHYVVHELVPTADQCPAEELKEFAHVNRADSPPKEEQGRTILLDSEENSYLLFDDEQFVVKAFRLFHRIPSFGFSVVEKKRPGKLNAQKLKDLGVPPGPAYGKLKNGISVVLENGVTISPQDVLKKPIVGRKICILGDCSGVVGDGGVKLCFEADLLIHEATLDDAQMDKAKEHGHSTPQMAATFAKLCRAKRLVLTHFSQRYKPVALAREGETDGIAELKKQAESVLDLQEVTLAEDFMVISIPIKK
UniProt Q5VSL9: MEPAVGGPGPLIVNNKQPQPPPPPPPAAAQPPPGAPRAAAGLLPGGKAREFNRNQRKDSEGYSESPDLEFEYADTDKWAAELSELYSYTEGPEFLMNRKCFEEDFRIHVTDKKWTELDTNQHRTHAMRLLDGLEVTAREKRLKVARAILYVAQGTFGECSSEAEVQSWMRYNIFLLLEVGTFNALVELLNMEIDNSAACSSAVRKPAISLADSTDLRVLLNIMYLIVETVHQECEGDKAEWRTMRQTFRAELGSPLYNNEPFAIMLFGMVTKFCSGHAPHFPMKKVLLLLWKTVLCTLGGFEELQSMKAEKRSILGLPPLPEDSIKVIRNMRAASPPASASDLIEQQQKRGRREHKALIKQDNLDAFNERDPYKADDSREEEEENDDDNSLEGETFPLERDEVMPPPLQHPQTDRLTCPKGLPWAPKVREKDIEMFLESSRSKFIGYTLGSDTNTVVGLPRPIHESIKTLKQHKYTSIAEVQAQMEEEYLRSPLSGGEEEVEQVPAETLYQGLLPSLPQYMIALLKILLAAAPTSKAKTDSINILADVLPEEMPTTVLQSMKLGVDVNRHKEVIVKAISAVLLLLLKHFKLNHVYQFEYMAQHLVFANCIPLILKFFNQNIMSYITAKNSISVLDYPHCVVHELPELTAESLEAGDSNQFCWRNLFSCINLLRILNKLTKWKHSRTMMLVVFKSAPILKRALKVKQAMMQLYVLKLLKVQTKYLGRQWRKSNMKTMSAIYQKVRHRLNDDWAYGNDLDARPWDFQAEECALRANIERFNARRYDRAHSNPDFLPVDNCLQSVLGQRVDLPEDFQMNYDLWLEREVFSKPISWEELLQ
UniProt Q9BY44: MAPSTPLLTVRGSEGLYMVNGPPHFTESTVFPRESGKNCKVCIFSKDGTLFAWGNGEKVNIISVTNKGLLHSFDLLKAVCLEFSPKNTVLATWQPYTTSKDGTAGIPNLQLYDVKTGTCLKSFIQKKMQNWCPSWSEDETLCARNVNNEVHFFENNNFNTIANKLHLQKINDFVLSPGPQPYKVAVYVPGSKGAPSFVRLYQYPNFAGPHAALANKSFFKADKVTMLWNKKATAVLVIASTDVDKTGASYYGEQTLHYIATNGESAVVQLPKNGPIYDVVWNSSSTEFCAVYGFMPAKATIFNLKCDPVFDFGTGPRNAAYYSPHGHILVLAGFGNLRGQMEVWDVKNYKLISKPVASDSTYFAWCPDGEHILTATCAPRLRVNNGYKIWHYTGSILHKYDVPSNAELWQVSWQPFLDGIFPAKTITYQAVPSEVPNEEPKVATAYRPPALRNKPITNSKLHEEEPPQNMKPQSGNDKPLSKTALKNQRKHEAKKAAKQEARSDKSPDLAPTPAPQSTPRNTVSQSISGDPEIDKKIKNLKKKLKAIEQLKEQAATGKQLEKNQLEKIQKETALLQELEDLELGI
UniProt Q9Y262, whole entry: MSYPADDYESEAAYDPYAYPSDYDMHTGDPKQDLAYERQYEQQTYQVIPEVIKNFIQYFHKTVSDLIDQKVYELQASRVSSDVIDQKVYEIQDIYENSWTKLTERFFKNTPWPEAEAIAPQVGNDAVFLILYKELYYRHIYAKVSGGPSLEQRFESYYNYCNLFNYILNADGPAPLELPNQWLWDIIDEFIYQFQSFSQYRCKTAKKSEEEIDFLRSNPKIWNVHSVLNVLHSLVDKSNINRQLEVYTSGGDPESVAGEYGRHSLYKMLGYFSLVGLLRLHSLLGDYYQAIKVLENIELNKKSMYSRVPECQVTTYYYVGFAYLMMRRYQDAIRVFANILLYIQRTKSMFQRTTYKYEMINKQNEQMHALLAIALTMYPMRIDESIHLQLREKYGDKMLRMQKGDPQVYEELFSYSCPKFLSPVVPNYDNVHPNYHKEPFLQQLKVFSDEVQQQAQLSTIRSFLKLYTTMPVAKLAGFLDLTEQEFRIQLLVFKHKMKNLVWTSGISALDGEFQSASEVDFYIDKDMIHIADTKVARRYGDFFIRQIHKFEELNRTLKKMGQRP
UniProt Q86VR2, whole entry: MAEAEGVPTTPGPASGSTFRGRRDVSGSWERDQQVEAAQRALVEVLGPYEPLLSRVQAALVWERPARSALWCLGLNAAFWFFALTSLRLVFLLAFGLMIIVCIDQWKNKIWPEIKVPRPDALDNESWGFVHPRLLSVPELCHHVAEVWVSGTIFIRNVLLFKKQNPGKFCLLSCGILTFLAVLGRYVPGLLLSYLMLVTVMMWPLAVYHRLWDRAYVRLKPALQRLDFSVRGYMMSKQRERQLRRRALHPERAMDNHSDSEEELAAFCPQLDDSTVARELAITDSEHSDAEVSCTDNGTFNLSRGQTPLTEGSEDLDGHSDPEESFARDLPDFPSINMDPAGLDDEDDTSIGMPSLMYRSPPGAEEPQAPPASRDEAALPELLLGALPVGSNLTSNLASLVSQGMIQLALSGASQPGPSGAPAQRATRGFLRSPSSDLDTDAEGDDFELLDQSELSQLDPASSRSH
UniProt Q13011: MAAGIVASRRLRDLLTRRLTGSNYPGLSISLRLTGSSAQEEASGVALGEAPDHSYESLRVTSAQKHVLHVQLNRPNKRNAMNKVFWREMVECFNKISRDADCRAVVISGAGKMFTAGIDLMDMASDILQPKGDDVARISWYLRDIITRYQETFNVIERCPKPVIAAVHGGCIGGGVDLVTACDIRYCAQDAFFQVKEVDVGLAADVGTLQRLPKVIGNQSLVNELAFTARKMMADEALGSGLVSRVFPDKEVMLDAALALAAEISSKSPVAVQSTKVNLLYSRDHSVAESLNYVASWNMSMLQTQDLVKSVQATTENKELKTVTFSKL
UniProt Q8TCE6, whole entry: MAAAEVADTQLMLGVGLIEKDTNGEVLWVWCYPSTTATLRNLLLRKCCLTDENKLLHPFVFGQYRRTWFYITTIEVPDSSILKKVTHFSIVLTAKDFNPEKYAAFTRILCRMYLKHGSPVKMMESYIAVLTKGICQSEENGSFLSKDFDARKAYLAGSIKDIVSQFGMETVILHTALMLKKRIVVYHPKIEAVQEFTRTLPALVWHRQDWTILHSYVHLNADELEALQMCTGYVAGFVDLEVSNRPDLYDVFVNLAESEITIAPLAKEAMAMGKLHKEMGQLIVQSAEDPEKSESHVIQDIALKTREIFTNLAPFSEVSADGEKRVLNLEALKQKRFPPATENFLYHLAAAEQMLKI
UniProt Q14232, whole entry: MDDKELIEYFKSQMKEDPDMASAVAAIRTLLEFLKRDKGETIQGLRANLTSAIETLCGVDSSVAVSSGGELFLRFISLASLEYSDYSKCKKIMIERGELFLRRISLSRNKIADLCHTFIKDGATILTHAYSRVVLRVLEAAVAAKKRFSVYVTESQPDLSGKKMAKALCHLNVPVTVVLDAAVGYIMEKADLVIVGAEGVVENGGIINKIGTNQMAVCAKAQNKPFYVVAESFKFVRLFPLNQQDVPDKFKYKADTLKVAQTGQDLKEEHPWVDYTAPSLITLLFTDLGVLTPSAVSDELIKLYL
UniProt P19447: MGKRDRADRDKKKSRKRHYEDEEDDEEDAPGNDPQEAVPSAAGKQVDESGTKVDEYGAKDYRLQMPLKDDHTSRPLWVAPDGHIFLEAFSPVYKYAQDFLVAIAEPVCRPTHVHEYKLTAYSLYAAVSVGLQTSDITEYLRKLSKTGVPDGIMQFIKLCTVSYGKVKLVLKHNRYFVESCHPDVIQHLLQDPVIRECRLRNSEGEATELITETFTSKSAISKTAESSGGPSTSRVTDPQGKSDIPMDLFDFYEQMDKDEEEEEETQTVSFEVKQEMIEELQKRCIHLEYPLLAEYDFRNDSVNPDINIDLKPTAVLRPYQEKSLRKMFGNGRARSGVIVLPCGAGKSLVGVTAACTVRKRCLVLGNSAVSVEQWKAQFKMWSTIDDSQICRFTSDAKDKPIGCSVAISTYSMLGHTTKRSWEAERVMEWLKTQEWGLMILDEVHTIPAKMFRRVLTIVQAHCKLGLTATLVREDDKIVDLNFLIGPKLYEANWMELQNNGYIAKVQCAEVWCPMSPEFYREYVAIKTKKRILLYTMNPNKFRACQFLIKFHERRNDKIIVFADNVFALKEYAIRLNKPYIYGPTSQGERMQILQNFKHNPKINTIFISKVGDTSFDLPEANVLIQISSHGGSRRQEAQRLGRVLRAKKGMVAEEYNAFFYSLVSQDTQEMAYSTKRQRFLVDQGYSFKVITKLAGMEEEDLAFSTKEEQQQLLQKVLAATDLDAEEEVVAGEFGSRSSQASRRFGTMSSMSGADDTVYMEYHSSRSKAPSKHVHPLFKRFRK
UniProt O95571: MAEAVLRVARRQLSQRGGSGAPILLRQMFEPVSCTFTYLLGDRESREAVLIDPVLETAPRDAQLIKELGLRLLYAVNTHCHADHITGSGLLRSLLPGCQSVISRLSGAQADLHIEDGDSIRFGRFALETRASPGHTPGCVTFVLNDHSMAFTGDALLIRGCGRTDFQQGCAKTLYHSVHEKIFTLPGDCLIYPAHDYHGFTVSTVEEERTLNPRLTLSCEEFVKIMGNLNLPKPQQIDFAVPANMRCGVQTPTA
UniProt O00559: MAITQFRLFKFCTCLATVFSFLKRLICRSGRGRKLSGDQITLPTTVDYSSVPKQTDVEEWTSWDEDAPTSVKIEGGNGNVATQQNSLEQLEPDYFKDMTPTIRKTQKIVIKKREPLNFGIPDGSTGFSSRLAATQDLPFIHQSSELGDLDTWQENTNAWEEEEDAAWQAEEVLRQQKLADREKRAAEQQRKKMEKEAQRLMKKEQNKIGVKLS
UniProt P11474: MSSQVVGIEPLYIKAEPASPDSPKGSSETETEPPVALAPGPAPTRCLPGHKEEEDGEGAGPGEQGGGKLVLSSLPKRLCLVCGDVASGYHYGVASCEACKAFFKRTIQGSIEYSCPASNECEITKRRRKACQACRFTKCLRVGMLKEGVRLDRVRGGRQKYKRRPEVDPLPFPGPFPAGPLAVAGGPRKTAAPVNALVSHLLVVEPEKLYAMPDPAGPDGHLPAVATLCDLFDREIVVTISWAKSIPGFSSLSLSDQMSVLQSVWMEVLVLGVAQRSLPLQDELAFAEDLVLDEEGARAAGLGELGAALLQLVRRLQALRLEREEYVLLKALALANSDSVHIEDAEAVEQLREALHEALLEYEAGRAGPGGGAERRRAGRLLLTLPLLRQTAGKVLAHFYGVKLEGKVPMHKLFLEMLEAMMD

Compound: COc1ccc(Cn2ccc3cc(C)c(C(=O)NO)cc32)cc1
Test: dose-dependent thermal stabilisation call (2D-TPP, DLPTP, 10% FDR) (binary (1 = stabilised)); higher = stabilised by the compound
Conditions: system: HL-60 intact cells; concentration range 0.04-10 µM
Protocol: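 2D thermal proteome profiling in intact HL-60 cells treated with BRD-3811 (0, 0.04, 0.29, 2, 10 uM) for 90 min at 37 C, then heated 3 min at one of 12 temperatures (42-63.9 C). Soluble protein was quantified by TMT10 MS. The value is the DLPTP call of the paper: dose-dependent thermal stabilisation over all temperatures at 10% FDR (F-test of a dose-response against a flat model); one experiment, one call per tested protein.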

Row | Target | dose-dependent thermal stabilisation call
1 | EIF4G2 (UniProt P78344) | inactive: 0
2 | EIF4EBP1 (UniProt Q13541) | inactive: 0
3 | FAM117A (UniProt Q9C073) | inactive: 0
4 | FAM160B1 (UniProt Q5W0V3) | inactive: 0
5 | ELAC1 (UniProt Q9H777) | inactive: 0
6 | EXOSC8 (UniProt Q96B26) | inactive: 0
7 | DYNC1LI2 (UniProt O43237) | inactive: 0
8 | EIF1AP1 | inactive: 0
9 | ETFB (UniProt P38117) | inactive: 0
10 | FAM40A (UniProt Q5VSL9) | inactive: 0
11 | FAM120C (UniProt Q9NX05) | inactive: 0
12 | ERLIN2 (UniProt O94905) | inactive: 0
13 | E2F4 (UniProt Q16254) | inactive: 0
14 | EIF2A (UniProt Q9BY44) | inactive: 0
15 | EIF5B (UniProt O60841) | inactive: 0
16 | EIF3L (UniProt Q9Y262) | inactive: 0
17 | EIF3E (UniProt P60228) | inactive: 0
18 | EXOC6 (UniProt Q8TAG9) | inactive: 0

Row | Target | dose-dependent thermal stabilisation call
19 | FAM134C (UniProt Q86VR2) | inactive: 0
20 | ECH1 (UniProt Q13011) | inactive: 0
21 | FAM45A (UniProt Q8TCE6) | inactive: 0
22 | EIF2B1 (UniProt Q14232) | inactive: 0
23 | ETNK1 (UniProt Q9HBU6) | inactive: 0
24 | FAM120A (UniProt Q9NZB2) | inactive: 0
25 | ERCC3 (UniProt P19447) | inactive: 0
26 | EIF6 (UniProt P56537) | inactive: 0
27 | ETF1 (UniProt P62495) | inactive: 0
28 | ERGIC1 (UniProt Q969X5) | inactive: 0
29 | DTYMK (UniProt P23919) | inactive: 0
30 | DYNC2H1 (UniProt Q8NCM8) | inactive: 0
31 | ETHE1 (UniProt O95571) | inactive: 0
32 | DST (UniProt Q03001) | inactive: 0
33 | EML2 (UniProt O95834) | inactive: 0
34 | ERAP2 (UniProt Q6P179) | inactive: 0
35 | EBAG9 (UniProt O00559) | inactive: 0
36 | ESRRA (UniProt P11474) | inactive: 0

Rewritten field by field: entries from further up.
ERGIC1 (UniProt Q969X5)
  dose-dependent thermal stabilisation call: inactive: 0
DTYMK (UniProt P23919)
  dose-dependent thermal stabilisation call: inactive: 0
DYNC2H1 (UniProt Q8NCM8)
  dose-dependent thermal stabilisation call: inactive: 0
